According to PMC5923319 (Toxins, 2018):
These are yes or no findings as the source states them, for the method shown. Binding seen in cells or lysates may run through a third protein. Some results given as binding are weak or reduced against the parent protein; the word gives no strength.

Chains of the proteins cited; added tags and fusions are not shown.
UniProt Q02563, whole entry: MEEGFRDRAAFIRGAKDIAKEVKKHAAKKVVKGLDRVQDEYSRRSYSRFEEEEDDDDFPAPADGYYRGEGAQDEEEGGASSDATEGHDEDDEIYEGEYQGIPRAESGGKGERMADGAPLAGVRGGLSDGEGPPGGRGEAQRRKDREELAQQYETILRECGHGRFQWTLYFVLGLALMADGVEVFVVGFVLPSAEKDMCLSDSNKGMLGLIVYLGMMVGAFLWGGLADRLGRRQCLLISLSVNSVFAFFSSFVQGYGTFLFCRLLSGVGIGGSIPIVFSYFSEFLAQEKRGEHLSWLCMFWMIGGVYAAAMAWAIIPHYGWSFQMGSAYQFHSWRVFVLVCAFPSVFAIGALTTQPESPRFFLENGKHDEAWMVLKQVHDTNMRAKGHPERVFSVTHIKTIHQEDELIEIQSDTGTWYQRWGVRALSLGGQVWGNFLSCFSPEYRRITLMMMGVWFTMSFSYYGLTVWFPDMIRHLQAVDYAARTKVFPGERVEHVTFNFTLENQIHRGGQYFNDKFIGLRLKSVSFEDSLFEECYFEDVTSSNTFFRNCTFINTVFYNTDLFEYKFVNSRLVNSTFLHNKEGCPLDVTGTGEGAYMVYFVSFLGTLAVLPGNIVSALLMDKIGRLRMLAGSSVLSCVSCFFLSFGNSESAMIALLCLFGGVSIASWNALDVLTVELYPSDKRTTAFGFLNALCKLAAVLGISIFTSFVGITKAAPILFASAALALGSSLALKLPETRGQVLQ
UniProt Q63564, whole entry: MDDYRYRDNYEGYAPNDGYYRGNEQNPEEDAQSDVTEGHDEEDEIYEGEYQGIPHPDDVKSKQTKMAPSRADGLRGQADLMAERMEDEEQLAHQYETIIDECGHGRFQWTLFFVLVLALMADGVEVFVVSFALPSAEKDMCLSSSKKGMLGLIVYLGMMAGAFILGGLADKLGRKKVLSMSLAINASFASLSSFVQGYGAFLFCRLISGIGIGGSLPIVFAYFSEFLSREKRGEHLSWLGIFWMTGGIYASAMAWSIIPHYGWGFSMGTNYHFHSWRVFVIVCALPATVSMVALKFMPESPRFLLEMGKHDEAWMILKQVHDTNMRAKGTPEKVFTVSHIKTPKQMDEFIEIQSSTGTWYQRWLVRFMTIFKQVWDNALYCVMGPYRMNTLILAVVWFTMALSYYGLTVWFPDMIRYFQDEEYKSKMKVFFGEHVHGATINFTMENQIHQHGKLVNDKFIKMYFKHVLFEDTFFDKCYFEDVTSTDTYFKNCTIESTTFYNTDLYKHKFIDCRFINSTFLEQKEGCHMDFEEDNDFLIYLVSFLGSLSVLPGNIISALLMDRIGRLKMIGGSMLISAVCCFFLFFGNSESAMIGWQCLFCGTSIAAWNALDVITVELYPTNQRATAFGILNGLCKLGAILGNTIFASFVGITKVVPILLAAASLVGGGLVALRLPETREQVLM

Columns and labels:
[1] = target: GST-fused receptor binding domain of BoNT/A1 (GST-HcA1) (Clostridium botulinum) (UniProt A2I2U2); assay: pull-down; only the target purified
[2] = target: GST-fused receptor binding domain of BoNT/A2 (GST-HcA2) (Clostridium botulinum A2 Kyoto-F) (UniProt Q45894); assay: pull-down; only the target purified

Row | Substance | binding [1] | binding [2]
1 | SV2A of rat brain detergent extract (glycosylated) (from UniProt Q02563 1-742) (receptor) | binds | binds
2 | SV2B of rat brain detergent extract (glycosylated) (from UniProt Q63564 1-683) (receptor) | binds | binds
